No constants are given. Whether binding was seen depends on the method and setting.
Target: Fc-His-TMPRSS2^ECD (UniProt O15393)
Experiment: pull-down; both purified

The chains behind the UniProt entries cited, without tags or fusion partners. Where a name states a change or a piece, a line headed by the entry shows the natural chain unless it says otherwise. A line that says so, or that is headed by a name, gives the form on record, which may keep a tag or linker.
Fc-His-TMPRSS2^ECD (O15393, form named): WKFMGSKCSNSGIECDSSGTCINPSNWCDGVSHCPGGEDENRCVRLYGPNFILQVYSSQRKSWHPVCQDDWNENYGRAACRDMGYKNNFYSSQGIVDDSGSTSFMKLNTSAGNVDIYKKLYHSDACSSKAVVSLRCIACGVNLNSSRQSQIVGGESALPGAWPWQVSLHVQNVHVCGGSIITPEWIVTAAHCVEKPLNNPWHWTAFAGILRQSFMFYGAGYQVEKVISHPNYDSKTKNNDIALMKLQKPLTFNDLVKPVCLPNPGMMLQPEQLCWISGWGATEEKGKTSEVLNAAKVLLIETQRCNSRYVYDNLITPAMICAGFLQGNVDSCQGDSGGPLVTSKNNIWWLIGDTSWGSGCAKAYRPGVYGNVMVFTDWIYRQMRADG

TcsH^1832-2209, His-tagged (from UniProt M9ZTT7 1832-2209) (domain or fragment)
binding: no binding (tested: 10 nM)
